# In PubChem BioAssay AID1487 (National Center for Advancing Translational Sciences (NCATS), 2009):
# The other results are listed elsewhere or left out. Further columns of the screen follow, without active or inactive calls. Most of these compounds were active or inconclusive in the main read-out, so they are no random draw. Words in brackets tell the shape of the fitted curve; partial curves, single points and poor fits give uncertain potencies.
# Assay: qHTS Assay for Modulators of Lamin A Splicing
# Details: HeLa LMNA splicing GFP/RFP minigene ratio, 48 h
# In short: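 S3 HeLa cells stably expressing lamin A-EGFP splicing minigene plus DsRed2, 600 cells/well, 48 h compound exposure at 37C. Laser-scanning cytometry; analysed as GFP (500-530 nm)/RFP (575-640 nm) total intensity ratio; 0.5% DMSO vehicle.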
# [1] = measured here: GFP splicing reporter channel
# [2] = measured here: RFP viability control channel
SMILES,AC50 [1],AC50 [2]
COc1ccc(CCNC(=O)Cn2nnc(-c3ccc(N4CCOCC4)cc3)n2)cc1OC,"6.31 µM [rising, partial curve, poor fit]","2 µM [rising, full curve, poor fit]"
O=C(CCN1CCc2ccccc2C(c2ccccc2)C1)c1ccc2c(c1)OCCO2 (stereo not drawn),–,"11.2 µM [rising, partial curve]"
Cc1ccc2cc(CCNC(=O)c3cccs3)c(=O)[nH]c2c1C,"0.447 µM [falling, single point]",–
O=C(CSc1ncnc2nc[nH]c12)c1ccc2ccccc2c1,–,"31.6 µM [rising, single point]"
CC12C=CC(=O)C=C1CCC1C3CCC(O)(C(=O)CO)C3(C)CC3OC312 (stereo not drawn),"0.00355 µM [rising, full curve, poor fit]",–
CC1CCC2C(=O)N(c3ccc(NC4CCN(Cc5ccccc5)CC4)c([N+](=O)[O-])c3)C(=O)C2C1 (stereo not drawn),"8.91 µM [falling, partial curve]","4.47 µM [falling, partial curve]"
Cn1cc(/C=N/n2cnc3scc(-c4ccccc4)c3c2=O)c2ccccc21,"5.01 µM [falling, full curve]","5.62 µM [falling, full curve]"
CCCCCc1ccc(S(=O)(=O)NCCc2ccncc2)cc1,–,"12.6 µM [rising, partial curve]"
CC(C)NC(=O)COC(=O)c1cc(F)c(F)cc1Cl,–,"2.24 µM [falling, partial curve, poor fit]"
CC(C)CNc1c(N)n(CC(C)C)c(=O)[nH]c1=O,"0.0178 µM [falling, full curve, poor fit]",–
CC#CCOC(=O)c1c(C)nc2sc3c(c2c1N)CCC(O)C3 (stereo not drawn),"0.794 µM [rising, full curve, poor fit]","0.00447 µM [falling, full curve, poor fit]"
CCC(=O)O[C@@]1(C(=O)SCF)[C@@H](C)C[C@H]2[C@@H]3C[C@@H](F)C4=CC(=O)C=C[C@@]4(C)[C@]3(F)[C@@H](O)C[C@]21C,"0.0158 µM [falling, full curve, poor fit]",–
O=C(NCCn1cc(SCc2ccc(F)cc2)c2ccccc21)c1ccccc1F,"10 µM [rising, partial curve]","20 µM [rising, single point]"
Cc1c(CCOC(=O)c2cc([N+](=O)[O-])cc([N+](=O)[O-])c2)sc[n+]1CC(=O)c1ccccc1,"10 µM [rising, single point]",–
CN1CCc2cccc3c2C1Cc1ccc(O)c(O)c1-3 (stereo not drawn),"14.1 µM [falling, partial curve, poor fit]","25.1 µM [falling, partial curve]"
Cc1cccc(NC(=O)CSc2nc3c([nH]c4ccccc43)c(=O)n2C)c1,"35.5 µM [falling, partial curve]","35.5 µM [falling, partial curve]"
N#C/C(=C/c1ccc(N2CCOCC2)o1)C(=O)Nc1ccccc1,"0.158 µM [rising, full curve]",–
CC(N)(C(=O)O)c1ccc(C(=O)O)cc1 (stereo not drawn),"0.00631 µM [rising, full curve, poor fit]",–
O=C(CN1CCOCC1)Nc1ncc(Cc2cccc(Cl)c2Cl)s1,"35.5 µM [rising, single point]","35.5 µM [rising, single point]"
CCOc1ccc(/C=C(\C(=O)O)c2ccc(S(=O)(=O)N3CCOCC3)s2)cc1OC,"0.224 µM [falling, full curve, poor fit]","0.447 µM [falling, full curve, poor fit]"
Cc1ccc(S(=O)(=O)NC(N)=NCCc2ccccc2)cc1C,–,"17.8 µM [rising, single point]"
CC(C)(C)C1CCC(=NNC(=S)Nc2cccnc2)CC1 (stereo not drawn),"35.5 µM [rising, single point]",–
O=C(/C=C/c1cccc([N+](=O)[O-])c1)NCCSCc1cccc(Cl)c1,–,"12.6 µM [rising, partial curve, poor fit]"
Cc1ccc(NCc2nnc3n2CCCCC3)cc1Cl,"0.891 µM [falling, full curve, poor fit]","0.708 µM [falling, full curve, poor fit]"
Cc1ccc(NC(=S)NNc2ncc(C(F)(F)F)cc2Cl)c(C)c1,–,"17.8 µM [rising, single point]"
CCOCCN1CCN(c2c(CC)c(C)nc3cc(-c4cc(OC)cc(OC)c4)nn23)CC1,–,"15.8 µM [rising, partial curve]"
CCOC(=O)C(C)Sc1ncnc2c1c(-c1ccccc1)cn2-c1ccc(OC)cc1 (stereo not drawn),–,"3.55 µM [rising, full curve, poor fit]"

SMILES,AC50 [1],AC50 [2]
O[C@H](c1cc(C(F)(F)F)nc2c(C(F)(F)F)cccc12)[C@H]1CCCCN1,"5.62 µM [falling, partial curve]","8.91 µM [falling, partial curve]"
COc1ccc(S(=O)(=O)NCCSCc2cccc(C)c2)cc1Br,"0.794 µM [falling, full curve, poor fit]",–
C/C(=N/Nc1nc(C)cc(-c2ccccc2)n1)c1ccco1,–,"35.5 µM [rising, single point]"
Cc1cc(C)c(/C=C/c2onc(C)c2S(=O)(=O)N2CCC(C(=O)N3CCN(c4ccccc4)CC3)CC2)c(C)c1,"4.47 µM [falling, partial curve, poor fit]","2.24 µM [falling, partial curve]"
COc1cccc(N(C(=O)Cn2nnc(-c3ccc(F)cc3)n2)C(C(=O)NCC2CCCO2)c2ccc(Cl)cc2)c1 (stereo not drawn),"7.94 µM [falling, partial curve]","7.94 µM [falling, full curve, poor fit]"
CN(Cc1cnn(C)c1)C(=O)c1sc2cccc(Cl)c2c1Cl,–,"12.6 µM [rising, single point]"
CC1CCc2nc3ncn(CC(=O)Nc4cccc(C#N)c4)c(=O)c3cc2C1 (stereo not drawn),"0.708 µM [rising, full curve, poor fit]","3.98 µM [rising, partial curve]"
CC(NC(=O)Nc1ccc(Br)cc1)C(C)(C)C (stereo not drawn),–,"35.5 µM [rising, single point]"
CCn1cc(C(=O)O)c(=O)c2cc(F)c(N3CCN(C)CC3)cc21,"1 µM [falling, partial curve, poor fit]",–
Cc1ccc(-c2ccc(=O)n(C(C)C(=O)Nc3ccccc3Cl)n2)cc1C (stereo not drawn),–,"3.55 µM [rising, partial curve, poor fit]"
Cc1ccc(S(=O)(=O)N(C)c2ccc(OCC(=O)Nc3nc(-c4ccccc4)cs3)cc2)cc1,"10 µM [rising, partial curve, poor fit]","11.2 µM [rising, partial curve]"
COc1cc(Cl)c(C)cc1NC(=O)CN1c2ccccc2S(=O)(=O)c2ccccc21,"1.58 µM [rising, partial curve, poor fit]",–
COc1cc(OC)cc(C(=O)NNC(=S)NCc2ccco2)c1,"2 µM [falling, full curve, poor fit]","2.51 µM [falling, full curve, poor fit]"
Cc1occc1-c1nnc(SCC(=O)NCCc2ccccc2)n1Cc1ccccc1,"4.47 µM [rising, full curve, poor fit]",–
Cc1cccnc1N(C(=O)Nc1cccc(Cl)c1)C1=NCC(C)(C)S1,–,"1.41 µM [falling, partial curve, poor fit]"
Cc1cccc(-n2ncc(C(=O)N3CCC(C)CC3)c2C2CCN(C(=O)OC(C)(C)C)CC2)c1,"0.00316 µM [falling, full curve, poor fit]",–
CCc1ccccc1N(CC(=O)N1CCN(c2ccc(F)cc2)CC1)S(C)(=O)=O,"15.8 µM [rising, partial curve, poor fit]","20 µM [rising, single point]"
O=C(Nc1ccc(C(=O)O)cc1)/C(=C\c1ccco1)NC(=O)c1ccccc1,–,"0.178 µM [falling, full curve]"
Cc1c(O)ccc(C(=O)CN2CCN(Cc3ccc4c(c3)OCO4)CC2)c1O,"11.2 µM [rising, partial curve]","14.1 µM [rising, partial curve]"
O=C1/C(=C/c2cccnc2)SC(=S)N1C1CCS(=O)(=O)C1 (stereo not drawn),"25.1 µM [falling, single point]",–
N#C/C(=C\N1CCN(Cc2ccc3c(c2)OCO3)CC1)c1nc2ccccc2s1,–,"35.5 µM [rising, single point]"
O=[N+]([O-])c1cc2c(cc1/C=N/NS(=O)(=O)c1ccc(Br)cc1)OCO2,–,"3.16 µM [rising, full curve, poor fit]"
COC(=O)CNC(c1ccccc1)c1cc(Br)ccc1NC(=O)CCN1CCOCC1 (stereo not drawn),"15.8 µM [falling, partial curve]","3.16 µM [falling, partial curve]"
CCOc1ccc2c(c1)c(N=O)c(O)n2C,–,"15.8 µM [rising, partial curve, poor fit]"
CC(C)CC(=O)NC(=S)N1CCN(c2ccc([N+](=O)[O-])cc2Cl)CC1,"11.2 µM [rising, single point]","17.8 µM [rising, single point]"
Cc1ccc(S(=O)(=O)N(CC(=O)NC2CCCC2)c2cccc(C)c2)cc1,"35.5 µM [rising, single point]",–
